Source: patent publication US20220213467A1
These are yes or no findings as the source states them, for the method shown. Some binding calls cover weakened binding; strength is not graded here. Sequences can lack the tags named with a protein.

Tests used:
[1] = molecular target: T1, gp11 fused to an HA peptide (gp11-HA), bacteriophage T4 gene product 11 (bacteriophage T4) (UniProt P10929); experiment: on-chip expression of gp10, capture on pre-synthesized gp11-HA traps; post-stained with labeled gp10
T1 sequence: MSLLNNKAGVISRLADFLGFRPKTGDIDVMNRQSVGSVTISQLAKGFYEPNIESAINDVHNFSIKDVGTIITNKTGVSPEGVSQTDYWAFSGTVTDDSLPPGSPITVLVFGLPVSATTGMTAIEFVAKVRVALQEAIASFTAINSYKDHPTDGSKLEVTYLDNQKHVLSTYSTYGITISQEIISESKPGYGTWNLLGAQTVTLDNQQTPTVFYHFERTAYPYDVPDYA

[2] = molecular target: T1, gp11 fused to an HA peptide (gp11-HA), bacteriophage T4 gene product 11 (bacteriophage T4); experiment: on-chip expression of gp10, capture on gp11-HA traps; free traps post-stained with labeled gp10
[3] = molecular target: T1, gp11 fused to an HA peptide (gp11-HA), bacteriophage T4 gene product 11 (bacteriophage T4); experiment: on-chip gene-10 titration, post-staining

Measured: binding

B1: gp10, bacteriophage T4 gene product 10 (protein)
chain: MKQNINIGNVVDDGTGDYLRKGGIKINENFDELYYELGDGDVPYSAGAWKTYNASSGQTLTAEWGKSYAINTSSGRVTINLPKGTVNDYNKVIRARDVFATWNVNPVTLVAASGDTIKGSAVPVEINVRFSDLELVYCAPGRWEYVKNKQIDKITSSDISNVARKEFLVEVQGQTDFLDVFRGTSYNVNNIRVKHRGNELYYGDVFSENSDFGSPGENEGELVPLDGFNIRLRQPCNIGDTVQIETFMDGVSQWRSSYTRRQIRLLDSKLTSKTSLEGSIYVTDLSTMKSIPFSAFGLIPGEPINPNSLEVRFNGILQELAGTVGMPLFHCVGADSDDEVECSVLGGTWEQSHTDYSVETDENGIPEILHFDSVFEHGDIINITWFNNDLGTLLTKDEIIDETDNLYVSQGPGVDISGDVNLTDFDKIGWPNVEAVQSYQRAFNAVSNIFDTIYPIGTIYENAVNPNNPVTYMGFGSWKLFGQGKVLVGWNEDISDPNFALNNNDLDSGGNPSHTAGGTGGSTSVTLENANLPATETDEEVLIVDENGSVIVGGCQYDPDESGPIYTKYREAKASTNSTHTPPTSITNIQPYITVYRWIRIA
binds: all assays above
